Assay results taken from PubChem BioAssay AID1487 (National Center for Advancing Translational Sciences (NCATS), 2009).
The other results are listed elsewhere or left out. Further columns of the screen follow, without active or inactive calls. Compounds called inactive in the main read-out are mostly missing here. Potencies come from curve fits of mixed quality, noted in brackets.

Assay: qHTS Assay for Modulators of Lamin A Splicing
Conditions: HeLa LMNA splicing GFP/RFP minigene ratio, 48 h
In short: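 Read-out is the ratio of GFP to DsRed2 object intensity, acquired by 488 nm laser-scanning cytometry on HeLa lamin A-EGFP minigene reporter cells. Compound incubation 48 hrs at 37 °C in Opti-MEM with 2% FBS; DMSO 0.5% final.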

[1] = measured here: RFP viability control channel
[2] = measured here: GFP splicing reporter channel

SMILES | AC50 [1] | AC50 [2]
O=C(/C=C/c1ccco1)Oc1cc(Br)cc(/C=N/NC(=O)c2ccccc2O)c1 | 5.62 µM [rising, partial curve] | 
CCOc1ccccc1/C=C/C(=O)c1ccc(Cl)cc1 | 35.5 µM [falling, single point] | 35.5 µM [falling, single point]
CC1CC(C)CN(C(=O)C(NS(=O)(=O)c2ccc(Br)s2)c2ccccc2)C1 (configuration not stated) | 31.6 µM [rising, single point] | 22.4 µM [rising, single point]
O=C(Nc1ccc(C(=O)OCc2cc(=O)n3c4c(sc3n2)CCCC4)cc1)c1cccc(F)c1 |  | 3.16 µM [rising, single point]
S=C(Nc1cccc(Cl)c1Cl)N1CCC2(CC1)OCCO2 | 5.62 µM [falling, single point] | 
COC(=O)c1ccc(C(=O)OC)c(NC(=O)C(C)(C)C)c1 |  | 22.4 µM [falling, single point]
Cc1cccn2c(Nc3ccccc3)c(-c3ccccn3)nc12 | 31.6 µM [rising, single point] | 35.5 µM [rising, single point]
O=C(CSc1nnc(-c2ccc(Cl)cc2)n1Cc1ccco1)Nc1ccc2c(c1)OCCO2 |  | 35.5 µM [rising, single point]
CC(C)(C)c1ccc(C(=O)CC(=O)c2cc(Cl)ccc2O)cc1 | 12.6 µM [rising, partial curve] | 12.6 µM [rising, single point]
O=C(CCc1[nH]c2ccccc2c1Sc1ccccc1)NCCO | 5.62 µM [falling, partial curve, poor fit] | 
COc1ccc([N+](=O)[O-])c2c(=O)ccoc12 | 0.501 µM [rising, partial curve] | 22.4 µM [rising, single point]
CN(C1CCCCC1)S(=O)(=O)c1ccc(NC(=O)c2ccc(Br)o2)cc1 | 17.8 µM [rising, partial curve, poor fit] | 
CCSC1(SCC)N=C(N)C2(C#N)C(c3ccc(F)cc3)C12C#N (configuration not stated) | 11.2 µM [falling, partial curve] | 11.2 µM [falling, partial curve]
Cc1ccc(-c2noc(CCC(=O)NCC3CCN(Cc4cccc(C)c4)CC3)n2)cc1 | 11.2 µM [rising, partial curve] | 
O=C(Nc1ccc(S(=O)(=O)N(Cc2ccccc2)c2ccccc2)cc1)c1ccc(F)cc1 |  | 10 µM [falling, partial curve, poor fit]
Cc1nc2ccccc2cc1C(=O)N/N=C/c1ccco1 | 6.31 µM [rising, single point] | 
O=C(c1cc2nc(-c3ccc(F)cc3)cc(C(F)(F)F)n2n1)N1CCCCC1c1cccnc1 (configuration not stated) | 4.47 µM [falling, partial curve, poor fit] | 3.16 µM [falling, single point]
O=C(CCc1ccccc1)N1CCc2c([nH]c3ccccc23)C1c1ccc(F)cc1 (configuration not stated) | 25.1 µM [rising, partial curve] | 
CCOC(=O)NC(NC(=S)Nc1ccc(OCC)cc1)C(Cl)(Cl)Cl (configuration not stated) | 3.98 µM [rising, single point] | 
CN1C(=O)c2ccccc2Sc2ccc(NC(=O)c3ccc(C#N)cc3)cc21 |  | 35.5 µM [falling, single point]
CCn1c(CSCc2ccc(C)cc2)nnc1SCC(=O)N1CCN(c2ccccc2)CC1 | 15.8 µM [rising, single point] | 
COc1ccc(C(CNC(=O)COc2ccccc2-c2ccccc2)N2CCOCC2)cc1 (configuration not stated) | 12.6 µM [rising, partial curve] | 
Nc1ccccc1Sc1ccc(C(=O)c2ccccc2C(=O)O)cc1[N+](=O)[O-] | 0.2 µM [falling, partial curve] | 
Cc1cc(C)n(-c2ccc(C(=O)N3CCc4ccccc43)cc2)n1 | 35.5 µM [rising, single point] | 35.5 µM [rising, single point]
Cc1cc(C)c(/C=C2\C(=O)Nc3ccccc32)[nH]1 | 20 µM [rising, single point] | 31.6 µM [rising, single point]
CN/C(=C\[N+](=O)[O-])NCCSCc1csc(CN(C)C)n1 |  | 14.1 µM [falling, single point]
O=C(CCCCCNc1nc(=S)[nH]c2ccccc12)NCc1ccccc1Cl | 0.794 µM [rising, full curve, poor fit] | 1.26 µM [rising, partial curve, poor fit]

3 entries drawn at random from those above:
SMILES | AC50 [1] | AC50 [2]
Cc1cc(C)n(-c2ccc(C(=O)N3CCc4ccccc43)cc2)n1 | 35.5 µM [rising, single point] | 35.5 µM [rising, single point]
O=C(CCCCCNc1nc(=S)[nH]c2ccccc12)NCc1ccccc1Cl | 0.794 µM [rising, full curve, poor fit] | 1.26 µM [rising, partial curve, poor fit]
O=C(Nc1ccc(C(=O)OCc2cc(=O)n3c4c(sc3n2)CCCC4)cc1)c1cccc(F)c1 |  | 3.16 µM [rising, single point]

Next records:

SMILES | AC50 [1] | AC50 [2]
CC(C)(C)NC(=O)C1CCN(C(=O)c2ccc(-c3ccccc3)cc2)CC1 | 25.1 µM [falling, partial curve] | 20 µM [falling, partial curve]
Cc1cccc(C(=O)Nc2ccc(S(=O)(=O)N3CCCCC3c3cccnc3)cc2)c1 (configuration not stated) | 0.1 µM [rising, full curve, poor fit] | 
O=C(Nc1nnc(-c2ccccc2)o1)c1cc(-c2cccs2)nc2ccccc12 | 6.31 µM [rising, full curve] | 0.794 µM [rising, full curve, poor fit]
Cc1cccc(C(=O)Nc2ccc(C(=O)/C=C/c3cccnc3)cc2)c1 | 35.5 µM [falling, single point] | 35.5 µM [falling, single point]
CN1/C(=C\C(=O)Nc2ccc(Br)cc2)C(C)(C)c2ccccc21 | 14.1 µM [falling, single point] | 15.8 µM [falling, partial curve]
Cc1ccc(CNC(=O)C(C)n2c(=O)cc(-c3ccccc3)c3c(C)nn(C)c32)cc1 (configuration not stated) | 12.6 µM [falling, single point] | 
COc1ccc(-n2c(=O)c(-c3ccc(Cl)cc3)nc3cnc(N4CCNCC4)nc32)cc1 | 17.8 µM [falling, partial curve] | 22.4 µM [falling, single point]
O=C(CN(C1CC1)S(=O)(=O)c1ccc(S(=O)(=O)NC2CCCCC2)cc1)Nc1ccccc1 | 31.6 µM [rising, single point] | 15.8 µM [rising, single point]
CCOc1ccc(S(=O)(=O)N2CCN(c3ccccc3F)CC2)c2cccnc12 | 31.6 µM [rising, single point] | 35.5 µM [rising, single point]
CSc1nc2ccc(S(=O)(=O)N3CCc4ccccc43)cc2s1 | 15.8 µM [rising, single point] | 35.5 µM [rising, single point]
Nc1nc(CSc2nc3ccccc3s2)nc(Nc2ccccc2)n1 |  | 35.5 µM [falling, partial curve, poor fit]
O=[N+]([O-])c1cncc([N+](=O)[O-])c1Nc1ccccc1Cl | 35.5 µM [rising, single point] | 
Cc1ccc(N2CCN(c3cc(C)nc4nc(C)nn34)CC2)c(C)c1 | 14.1 µM [rising, single point] | 
CC1(C)SC(=S)N(NC(=O)Nc2ccccc2)C1N(O)C(=O)Nc1cccc2ccccc12 (configuration not stated) | 35.5 µM [falling, single point] | 35.5 µM [falling, partial curve]
CC1(C(=O)Nc2ccc3ccccc3c2)CC1(Br)Br (configuration not stated) |  | 3.16 µM [falling, partial curve]
COc1ccccc1NC(=O)CSc1nc2sc(C)c(C)c2c(=O)n1Cc1ccco1 |  | 1.26 µM [rising, full curve, poor fit]
Clc1ccccc1-c1nnc2sc(C3COc4ccccc4O3)nn12 (configuration not stated) | 8.91 µM [rising, partial curve] | 
CCC(C)(C)n1nnnc1C(c1cccs1)N1CCN(c2nc3ccccc3s2)CC1 (configuration not stated) | 15.8 µM [rising, partial curve] | 11.2 µM [rising, partial curve, poor fit]
CN(C)c1ccc(/C=N/n2ncc3ccccc32)cc1 | 35.5 µM [rising, single point] | 25.1 µM [rising, single point]
CCCC(=O)NCCc1c2n(c3ccc(OC)cc13)CCCc1ccccc1-2 | 12.6 µM [falling, partial curve] | 12.6 µM [falling, partial curve]
COc1cc(/C=N/NC(=O)c2cc(-c3ccc4c(c3)OCO4)n[nH]2)ccc1O | 11.2 µM [rising, single point] | 
Cc1ccc(C2NC(=O)c3c(sc4c3CCN(C)C4)N2)s1 (configuration not stated) | 5.62 µM [rising, single point] | 
COc1ccc(CCNc2cc(C)nc3c(-c4ccccc4)cnn23)cc1OC | 8.91 µM [rising, partial curve, poor fit] | 
CCc1nc(SCC(=O)c2ccc3c(c2)OCCO3)c2ccccc2n1 | 15.8 µM [rising, single point] | 
O=c1c(-c2nc3ccccc3o2)c2oc3ccccc3n2c2ccccc12 | 22.4 µM [rising, single point] | 
Cc1cc2c(cc1Cl)N(C(=O)Nc1ccnc3ccccc13)CC2 | 0.000891 µM [falling, full curve, poor fit] | 
O=C(O)Cn1nc(C(F)(F)F)c2c1CCCCC2 | 20 µM [falling, single point] | 22.4 µM [falling, single point]
